{"source": "patent US11759477B2", "about": "“Compositions of nitrates and methods of use thereof” (Heartbeet Ltd., priority 2007, dated 2023)", "settings": "0.1 mmol/kg/day oral, 3 days", "data": [{"compound": "O=[N+]([O-])[O-].[Na+]", "note": "[sodium nitrate]", "values": [{"measurement": "Hematocrit value after the VO2peak-test", "setting": "after VO2peak-test", "result": "46±4", "unit": "%"}, {"measurement": "[Hb] immediately after the VO2peak-test", "setting": "after VO2peak-test", "result": "163±13", "unit": "g×1-1"}, {"measurement": "Hematocrit value at rest", "setting": "at rest", "result": "42±4", "unit": "%"}, {"measurement": "[Hb] at rest", "setting": "at rest", "result": "152±11", "unit": "g×1-1"}]}]}
